Laboratory results as given in PubChem BioAssay AID1259354 (Paczesny and Yang Labs, IUPUI and University of Michigan, 2018).
Hit rate of the full screen: of about 78,000 compounds, about 1,800 (2.3%) were called active. Inconclusive results, whose numbers are uncertain, are shown with a selection of clear calls. No stated cut-off is given here; in the data, active means inhibition above about 30%; inconclusive means mostly about 10% to 28%; inactive means weaker than that.

Amino acid sequences for entries named in this document (tags omitted). A change or cut given only in a name is not applied to a line headed by its entry.
UniProt Q01638: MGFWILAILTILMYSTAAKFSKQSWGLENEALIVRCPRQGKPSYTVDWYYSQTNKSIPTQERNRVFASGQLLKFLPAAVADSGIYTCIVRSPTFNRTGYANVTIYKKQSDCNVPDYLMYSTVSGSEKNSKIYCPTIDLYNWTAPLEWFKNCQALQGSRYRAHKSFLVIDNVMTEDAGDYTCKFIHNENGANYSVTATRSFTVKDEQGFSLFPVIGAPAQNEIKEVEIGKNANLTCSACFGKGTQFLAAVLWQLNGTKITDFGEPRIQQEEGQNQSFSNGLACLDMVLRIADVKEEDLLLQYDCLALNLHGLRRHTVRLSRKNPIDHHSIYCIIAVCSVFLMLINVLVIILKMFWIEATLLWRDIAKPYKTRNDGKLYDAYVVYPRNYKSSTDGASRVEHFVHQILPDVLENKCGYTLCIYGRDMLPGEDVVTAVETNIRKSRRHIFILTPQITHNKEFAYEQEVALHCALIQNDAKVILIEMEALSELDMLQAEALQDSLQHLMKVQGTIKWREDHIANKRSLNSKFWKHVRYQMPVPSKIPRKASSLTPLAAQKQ

Molecular target: Interleukin-1 receptor-like 1 (Homo sapiens) (UniProt Q01638)
Test: blocks human ST2 binding to IL-33, primary screen, biochemical, AlphaLISA (AID 1259354)
Conditions: AlphaLISA ST2-Fc/biotin-IL-33 interaction, 1 h; at 17 µM, hits give high values

| SMILES | inhibition |
| --- | --- |
| Cc1ccc(C(NC(=O)C2(N)CC2)c2ccccc2)cc1 (configuration not stated) | inconclusive: 14% |
| Cn1c(=O)c2c(nc(Oc3ccc(Cl)cc3)n2Cc2ccccc2F)n(C)c1=O | inconclusive: 13% |
| Cc1ccccc1CSC1=NCCN1C(=O)c1ccc(S(=O)(=O)N(C)C)cc1 | inconclusive: 10% |
| CC(=O)Nc1nc(C)c(-c2nc3ccc([N+](=O)[O-])cc3[nH]2)s1 | inactive |
| O=c1c2sccc2n(Cc2cc(=O)n3ccccc3n2)c(=O)n1-c1ccc(F)c(Cl)c1 | inconclusive: 22% |
| COc1ccc2cc(S(=O)(=O)N3CCN(C)CC3)ccc2c1 | inactive |
| O=C(ONc1ncnc2nonc12)c1ccccc1 | inactive |
| Clc1ccc(Nc2ncnc3c2cnn3-c2ccccc2)c(Cl)c1 | inconclusive: 12% |
| CN(CC1COc2ccccc2O1)C(=O)c1ccc(NCc2ccncc2)nc1 (configuration not stated) | inactive |
| Cc1cc(NC(=O)c2noc3c2CCCC3)no1 | inconclusive: 13% |
| CC(=O)C1=C(C)Nc2nnnn2C1c1ccc(Cl)cc1 (configuration not stated) | inactive |
| CC1(C)CC(=O)C2=C(C1)C(c1ccc3c(c1)OCO3)Nc1ccc3ccccc3c12 (configuration not stated) | inconclusive: 10% |
| NC(=O)c1ccc(-c2ccc(F)c(CO)c2)cc1 | inconclusive: 14% |
| O=C1NC(=O)/C(=C\c2cccc([N+](=O)[O-])c2)S1 | inactive |
| O=C(c1cc2ccccc2o1)N1CCN=C1SCc1cccc(C(F)(F)F)c1 | inactive |
| CCc1nc(CN(C)CC2CCN(Cc3ccc(C)o3)CC2)c(C)[nH]1 | inconclusive: 14% |
| Cc1ccc(N(CCCCN2C(=O)c3ccccc3C2=O)C(=O)c2ccc([N+](=O)[O-])o2)cc1 | inconclusive: 24% |
| CC1(C)CC(=O)c2cc(OCC(=O)N3CCc4ccccc4C3)ccc2O1 | inactive |
| Clc1ccc2nc(-c3ccccn3)c(Nc3ccc4c(c3)OCO4)n2c1 | inconclusive: 26% |
| O=C(O)/C=C1\NC(=O)c2ccccc21 | inactive |
| COc1cc2c(C(=O)N3CCCCC3C)cn(C)c(=O)c2cc1OC (configuration not stated) | inconclusive: 17% |
| CC1CC(C)CN(S(=O)(=O)c2ccc(C(=O)Nc3nc(-c4cccnc4)cs3)cc2)C1 (configuration not stated) | inconclusive: 13% |
| Cc1ccc(Oc2cc(NC(=O)CCCn3nc([N+](=O)[O-])cc3C)cc([N+](=O)[O-])c2)cc1 | inconclusive: 21% |
| CCCOc1nnc(-c2ccc(C)cc2)c2ccccc12 | inactive |

Some of the entries so far, with tabs.
SMILES	inhibition
CC(=O)C1=C(C)Nc2nnnn2C1c1ccc(Cl)cc1 (configuration not stated)	inactive
NC(=O)c1ccc(-c2ccc(F)c(CO)c2)cc1	inconclusive: 14%

(further entries)

| SMILES | inhibition |
| --- | --- |
| Cc1cccc(-c2noc([C@@H]3C[C@@H](O)CN3Cc3ccccn3)n2)c1 | inconclusive: 14% |
| O=C(NC1CCCC1)C1(S(=O)(=O)c2ccc(Cl)cc2)CC1 | inconclusive: 15% |
| Cc1ccc2[nH]c(CN3CC=CCC3)nc2c1C | inconclusive: 13% |
| CCOc1ccc(/C=C/C(=O)Nc2ncn[nH]2)cc1OC | inactive |
| Cn1c(N2CCOCC2)nc2c1c(=O)n(Cc1cccc(Br)c1)c(=O)n2C | inconclusive: 15% |
| O=C(CCCn1ccnc1)NC1CC(=O)N(Cc2cccc3ccccc23)C1 (configuration not stated) | inconclusive: 10% |
| CN1CCC(Cc2noc(-c3nn(C)c4c3CCCC4)n2)CC1 | inactive |
| C[C@H]1[C@H](C)CC[C@]2(C(=O)O)CC[C@]3(C(=O)O)C(=CCC4[C@@]5(C)CC[C@H](O[C@@H]6O[C@H](C)[C@@H](O)[C@H](O)[C@H]6O)C(C)(C)C5CC[C@]43C)[C@H]12 (some centres not stated) | inconclusive: 19% |
| COc1ccc(Oc2nc3c(c(=O)n(C)c(=O)n3C)n2Cc2cccc(Br)c2)cc1 | inactive |
| OCCNCCOc1ccc(Br)cc1Cl | inconclusive: 18% |
| Nc1c2c(nc3ccccc13)CCCC2 | inconclusive: 14% |
| COC(=O)C1C(=O)C2=C(CC1C)NC(C)=C(C(=O)OC(C)C)C2c1ccccc1C (configuration not stated) | inactive |
| COc1ccc(CN(C)C(=O)c2cc3n(n2)CCCNC3)c2cccnc12 | inactive |
| O=C(CN1C(=O)C2CCCCN2C(=O)c2ccccc21)NCc1ccccc1 (configuration not stated) | inconclusive: 12% |
| c1ccc(-c2nc[nH]c2-c2cccn2-c2cccnc2)cc1 | inactive |
| CCN(c1ccccc1)c1ncnc2c1cnn2-c1cccc(C)c1 | inconclusive: 11% |
| CCC1(c2ccccc2)C(=O)c2ccccc2C1=O | inactive |
| C[C@@H]1CC[C@]2(C(=O)O)CC[C@]3(C(=O)O)C(=CCC4[C@@]5(C)CC[C@H](O[C@@H]6O[C@@H](C)[C@H](O[C@@H]7O[C@H](CO)[C@@H](O)[C@H](O)[C@H]7O)[C@@H](O)[C@H]6O)C(C)(C)C5CC[C@]43C)C2[C@H]1C (some centres not stated) | inconclusive: 12% |
| CC(C)(C)C(=O)NCCSc1c[nH]c2ccccc12 | inactive |
| Cc1ccnc(NC(=O)Cn2nc([N+](=O)[O-])c(Br)c2C)c1 | inconclusive: 10% |
| O=C(Cc1cccc(F)c1F)N1C[C@@H]2C[C@H](C1)[C@@H]1CCCC(=O)N1C2 | inconclusive: 10% |
| CCn1cc(-c2c(-c3ccccc3)ncn2Cc2sc(COC)nc2C)c(C)n1 | inactive |
| C=CC(C)(O)CC/C=C(\C)CCC(O)C(C)(C)O (configuration not stated) | active: 43% |
